# Where “and” joins values, the source holds several entries; their conditions need not be identical. Identical values can stand only once. At least one peptide structure holds a part that was inferred or is arguable (an end, a ring closure or a residue). Residues, ends and D or L forms follow the SMILES beside them. *: point of attachment. Stearoyl = CCCCCCCCCCCCCCCCCC(=O)*
# Legend:
# [1] = system: electrically blocked neurons (mouse spinal cord neurons); format: cell-based
# [2] = system: untreated neurons (cerebral cortical cultures); experiment: Survival of untreated neurons (naturally occurring death), cerebral cortical cultures; format: cell-based, rat; settings: for concentrations protecting cells from naturally occurring death: untreated rat cerebral cortical cultures; for protection of neurons from naturally occurring death: untreated neurons, or counts compared with untreated control cells
# Experimental: (a) Cerebral cortical cultures were prepared by a slight modification of the techniques described by Forsythe and Westbrook, (a. Physiol. Lond. 396:515 (1988)), in which cerebral cortex was used instead of hippocampus and newborn rats were utilized instead of E16 mice. After nine days growth in vitro, the cultures were given a complete change of medium and treated with serial dilutions of either peptide 1, 2 or 6 in order to determine whether these peptides were effective in protecting neurons from naturally occurring death. Cerebral cortical cells were counted as above, however, only 40 fields per plate were counted comprising an area of 20 mm^2.
# (a) Cells were prepared as described in Example 6. After nine days growth in vitro, the cultures were given a complete change of medium and treated with serial dilutions of peptide 5 or of peptide 3 in the presence and in the absence of 10^-8 M of a VIP antagonist described in detail in U.S. Pat. No. 5,217,953. One treatment was given at the beginning of a five day test period. Cell counts were performed on 100 fields, with a total area of 50 mm^2. Neurons were counted without knowledge of treatment.
# [3] = system: Neurons from rat cerebral cortex treated with β-amyloid peptide fragment 25-35; experiment: Survival of neurons treated with fragment 25-35 of β-amyloid peptide
# [4] = system: learning and memory in AF64A-treated rats; experiment: Morris water maze, AF64A animal model of Alzheimer, nasal drug administration; format: in vivo, rat; settings: daily nasal administration (St-Nle17-VIP 70 μg/40 μl; peptide 6 50 μg/40 μl)
# Experimental: 8 Male rats were all treated with AF64A as described above. 10 days after AF64A administration 5 animals received daily nasal administration of St-Nle^17 -VIP dissolved in 10% sefsol and 40% isopropanol at a concentration of 70 μg/40 μl (20 μl administered through each nostril). 3 Animals received daily nasal administration of 50 μg/40 μI of peptide 6, (20 μl/nostril) dissolved in 10% sefsol and 40% isopropanol. 6 Control animals received daily nasal administration of 10% sefsol and 40% isopropanol at an amount of 40 μl/day (20 μl nostril). The animals were partially anesthetized by diethylether prior to nasal administration. Both control and test animals were daily treated with 50,000 units of durabiotic antibiotics to avoid infection. Following 7 days of nasal administration behavioral tests were conducted on both control and test animals for an additional 8 days. […]
# Rats were placed in a circular pool, 1.26 m in diameter, 0.2 m deep, equipped with a clear plexiglas column, with a 13.3 cm platform reaching just below the surface of the water (22-24° C.). […] The latency of reaching the platform was recorded for each rat (in seconds) and the changes over days of training were graphed, which reflect learning and memory.
compound,measurement,setting,value
"CCCCCCCCCCCCCCCCCC(=O)N[C@@H](Cc1c[nH]cn1)C(=O)N[C@@H](CO)C(=O)N[C@@H](CC(=O)O)C(=O)N[C@@H](C)C(=O)N[C@H](C(=O)N[C@@H](Cc1ccccc1)C(=O)N[C@H](C(=O)N[C@@H](CC(=O)O)C(=O)N[C@@H](CC(N)=O)C(=O)N[C@@H](Cc1ccc(O)cc1)C(=O)N[C@H](C(=O)N[C@@H](CCCNC(=N)N)C(=O)N[C@@H](CC(C)C)C(=O)N[C@@H](CCCNC(=N)N)C(=O)N[C@@H](CCCCN)C(=O)N[C@@H](CCC(N)=O)C(=O)N[C@@H](CCSC)C(=O)N[C@@H](C)C(=O)N[C@H](C(=O)N[C@@H](CCCCN)C(=O)N[C@@H](CCCCN)C(=O)N[C@@H](Cc1ccc(O)cc1)C(=O)N[C@@H](CC(C)C)C(=O)N[C@@H](CC(N)=O)C(=O)N[C@@H](CO)C(=O)N[C@H](C(=O)N[C@@H](CC(C)C)C(=O)N[C@@H](CC(N)=O)C(N)=O)[C@@H](C)CC)C(C)C)[C@@H](C)O)[C@@H](C)O)C(C)C [St-VIP, Stearoyl-VIP]",peak of active concentrations,[1],broadening of the peak of active concentrations
same,potency relative to native VIP in protecting electrically blocked cells from death,[1],about 10 fold
"CCCCCCCCCCCCCCCCCC(=O)N[C@@H](CCCCN)C(=O)N[C@@H](CCC(N)=O)C(=O)N[C@@H](CCSC)C(=O)N[C@@H](C)C(=O)N[C@H](C(=O)N[C@@H](CCCCN)C(=O)N[C@@H](CCCCN)C(=O)N[C@@H](Cc1ccc(O)cc1)C(=O)N[C@@H](CC(C)C)C(=O)N[C@@H](C)C(=O)N[C@@H](C)C(=O)N[C@H](C(=O)N[C@@H](CC(C)C)C(N)=O)C(C)C)C(C)C [peptide 2, St-Lys-Gln-Met-Ala-Val-Lys-Lys-Tyr-Leu-Ala-Ala-Val-Leu-amide]",concentrations protecting cells from naturally occurring death,[2],above 10^-9 M
"CCCCCCCCCCCCCCCCCC(=O)N[C@@H](Cc1c[nH]cn1)C(=O)N[C@@H](CO)C(=O)N[C@@H](CC(=O)O)C(=O)N[C@@H](C)C(=O)N[C@H](C(=O)N[C@@H](Cc1ccccc1)C(=O)N[C@H](C(=O)N[C@@H](CC(=O)O)C(=O)N[C@@H](CC(N)=O)C(=O)N[C@@H](Cc1ccc(O)cc1)C(=O)N[C@H](C(=O)N[C@@H](CCCNC(=N)N)C(=O)N[C@@H](CC(C)C)C(=O)N[C@@H](CCCNC(=N)N)C(N)=O)[C@@H](C)O)[C@@H](C)O)C(C)C [peptide 3, St-His-Ser-Asp-Ala-Val-Phe-Thr-Asp-Asn-Tyr-Thr-Arg-Leu-Arg-amide]",protection of neurons from naturally occurring death,[2],able to protect cells from naturally occurring death
same,protection of neurons from β-amyloid peptide fragment toxicity,"[3]; 25 μM β-amyloid fragment 25-35, 5 days",able to protect neurons from β-amyloid associated death at a wide range of concentrations
"CCCCCCCCCCCCCCCCCC(=O)N[C@@H](C)C(=O)N[C@H](C(=O)N[C@H](C(=O)N[C@H](C(=O)N[C@@H](CC(=O)O)C(=O)N[C@@H](CC(N)=O)C(=O)N[C@@H](Cc1ccc(O)cc1)C(=O)N[C@H](C(N)=O)[C@@H](C)O)[C@@H](C)O)[C@@H](C)O)C(C)C [peptide 5, St-Ala-Val-Thr-Thr-Asp-Asn-Tyr-Thr-amide] (Stearoyl-AVTTDNYT-NH2)",protection of neurons from naturally occurring death,[2],can protect neurons from naturally occurring death
"CCCCCCCCCCCCCCCCCC(=O)N[C@@H](C)C(=O)N[C@H](C(=O)N[C@@H](CCCCN)C(=O)N[C@@H](CCCCN)C(=O)N[C@@H](Cc1ccc(O)cc1)C(=O)N[C@@H](CC(C)C)C(=O)N[C@@H](CC(N)=O)C(=O)N[C@@H](CO)C(=O)N[C@H](C(=O)N[C@@H](CC(C)C)C(=O)N[C@@H](CC(N)=O)C(N)=O)[C@@H](C)CC)C(C)C [peptide 6, St-Ala-Val-Lys-Lys-Tyr-Leu-Asn-Ser-Ile-Leu-Asn-amide] (Stearoyl-AVKKYLNSILN-NH2)",learning and memory (latency of reaching the platform),[4],control animals (.quadrature.) show smaller improvement in the latency of reaching the platform
same,concentrations protecting cells from naturally occurring death,[2],≥ 10^-11 M
same,most effective protective concentration (peak activity) against β-amyloid associated death,[3]; 25 μM β-amyloid fragment 25-35,10^-12 M
same,concentrations showing some activity against β-amyloid associated death,"[3]; above and below peak concentration, data not shown",10^-13 M and 10^-11 M

# Reference: US5972883A, “Method for the treatment of neurodegenerative diseases by administering VIP, an analogue, fragment or a conjugate thereof” (Yeda Research and Development Co. Ltd., priority 1993, dated 1999)
